In the test the target is T1, Dad1-3Flag (Dam1 complex component Dad1) (S. cerevisiae) (UniProt Q12248).
T1 sequence: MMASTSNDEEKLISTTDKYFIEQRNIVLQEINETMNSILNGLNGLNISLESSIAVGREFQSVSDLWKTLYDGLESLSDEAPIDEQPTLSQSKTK
As to the kind of experiment: co-IP; Flag immunoprecipitation of Dad1-3Flag from benzonase-treated yeast extracts (anti-Flag M3DK on Protein G Dynabeads, 3 h at 4 °C, Buffer H/0.15 with 150 mM KCl, pH 8.0), eluted with 3x M3DK peptide, silver-stained SDS-PAGE.

Sequences of proteins named here, by UniProt entry; tags and fusion partners are left off.
UniProt P33895: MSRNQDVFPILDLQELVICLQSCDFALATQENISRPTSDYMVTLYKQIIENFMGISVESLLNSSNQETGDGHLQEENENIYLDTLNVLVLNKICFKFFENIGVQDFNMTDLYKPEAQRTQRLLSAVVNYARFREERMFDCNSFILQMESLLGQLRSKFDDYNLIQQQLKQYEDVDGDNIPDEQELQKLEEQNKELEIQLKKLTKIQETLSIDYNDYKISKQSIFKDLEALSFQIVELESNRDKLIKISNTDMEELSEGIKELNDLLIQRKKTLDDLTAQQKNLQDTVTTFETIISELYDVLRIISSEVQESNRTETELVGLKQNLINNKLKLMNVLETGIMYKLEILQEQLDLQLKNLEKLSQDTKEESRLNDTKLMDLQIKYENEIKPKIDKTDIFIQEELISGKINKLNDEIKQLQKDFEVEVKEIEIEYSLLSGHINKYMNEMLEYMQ

These are yes or no findings as the source states them, for the method shown. In cells and extracts the contact can be indirect. Some entries that bind do so weakly or less than the wild type. Tags and fused reporters may be left off the sequences shown.

Take “Nuf2-3V5 (S. cerevisiae Nuf2 kinetochore protein, wild type) (from UniProt P33895 1-451)”: the binding result was “binds”.

The values above are taken from paper PMC11953741.
